PubChem BioAssay AID1671195 | Yale University – 2021

Assay: 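Regulators of LDL receptor activity judged by labelled LDL uptake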 (primary screen)
Cell system: human Huh7 hepatoma cells
Reagent: siRNA pool against human genes, 18 nM
Duration: about 2 to 2.5 days of knockdown, then 8 h LDL uptake
Treatment: DiI-labelled LDL at 30 µg/ml for 8 h, in lipoprotein-deficient serum medium
Read-out: 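Per-cell DiI-LDL intensity by automated imaging; well means scaled to the plate median and given as a robust z-score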
Scale: robust z-score: higher = more LDL uptake after knockdown
Hit rule: 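Active when two or more replicates show a robust z-score above 2 or below -2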
Here is a random part of about 22,000 reagents. In the full data, about 1,510 (6.9%) were called active. 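Active includes knockdowns raising or lowering LDL uptake; positive z-scores mean more uptake, negative mean less.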 Reagent sequences are not shown.

target gene,PubChem SID,"robust z-score, replicate 1","robust z-score, replicate 2","robust z-score, replicate 3",call
PDLIM3 (GeneID 27295),SID442902424,-1.15,-0.675,-1.39,inactive
LETMD1 (GeneID 25875),SID442884882,2.43,1.35,1.66,inactive
KRTAP2-2 (GeneID 728279),SID442893606,0.0112,-0.671,0.751,inactive
LOC401034 (retired record) (GeneID 401034),SID442895402,0.0612,-0.318,-0.241,inactive
FAM3B (GeneID 54097),SID442899251,-0.671,-0.622,-0.495,inactive
ZNF581 (GeneID 51545),SID442903203,-1.42,-1.55,-0.746,inactive
GNL3 (GeneID 26354),SID442901134,-0.963,-1.08,-0.52,inactive
RECQL (GeneID 5965),SID442896219,-0.574,0.21,-0.386,inactive
BCOR (GeneID 54880),SID442887299,0.945,0.261,1.62,inactive
LOC441104 (retired record) (GeneID 441104),SID442897433,-0.17,-0.306,-0.68,inactive
MRO (GeneID 83876),SID442886612,1.04,0.864,1.42,inactive
LOC442276 (retired record) (GeneID 442276),SID442890603,0.45,-0.155,0.883,inactive
TMEM247 (GeneID 388946),SID442886153,0.839,1.67,1.24,inactive
INS (GeneID 3630),SID442903830,-1.43,-1.35,-1.43,inactive
SMG9 (GeneID 56006),SID442885895,1.78,2.03,0.186,inactive
MCM3 (GeneID 4172),SID442896593,-0.104,-0.217,-0.55,inactive
TFG (GeneID 10342),SID442891084,0.602,0.846,-0.447,inactive
MCF2 (GeneID 4168),SID442895990,-0.332,-0.0501,-0.298,inactive
CHRFAM7A (GeneID 89832),SID442896413,-0.157,-0.25,-0.402,inactive
NPFFR2 (GeneID 10886),SID442886478,1.22,0.408,1.82,inactive
CDHR5 (GeneID 53841),SID442893700,0.0754,-0.228,0.213,inactive
CSNK2A2 (GeneID 1459),SID442895315,-0.305,-0.417,0.25,inactive
KAZALD1 (GeneID 81621),SID442904242,-1.46,-1.56,-1.6,inactive
ARVCF (GeneID 421),SID442901744,-1.28,-0.949,-0.623,inactive
KCNAB1 (GeneID 7881),SID442892332,0.182,0.637,-0.278,inactive
LINC01257 (GeneID 116437),SID442883169,2.93,4.76,5.05,active
DYNLRB2 (GeneID 83657),SID442890956,0.0777,0.457,0.512,inactive

Entries listed so far whose gene name starts with C or c:
target gene,PubChem SID,"robust z-score, replicate 1","robust z-score, replicate 2","robust z-score, replicate 3",call
CHRFAM7A (GeneID 89832),SID442896413,-0.157,-0.25,-0.402,inactive
CDHR5 (GeneID 53841),SID442893700,0.0754,-0.228,0.213,inactive
CSNK2A2 (GeneID 1459),SID442895315,-0.305,-0.417,0.25,inactive

Continued.
target gene,PubChem SID,"robust z-score, replicate 1","robust z-score, replicate 2","robust z-score, replicate 3",call
RNF112 (GeneID 7732),SID442904634,-1.99,-1.57,-1.75,inactive
KCNA3 (GeneID 3738),SID442904707,-1.67,-1.86,-1.92,inactive
VPS33A (GeneID 65082),SID442887091,1,1.02,0.941,inactive
PKP2 (GeneID 5318),SID442884761,-1.82,-2.49,-1.62,inactive
MAB21L2 (GeneID 10586),SID442895226,0.551,0.0103,-1,inactive
AGL (GeneID 178),SID442899177,-0.634,-0.476,-0.653,inactive
RBM14 (GeneID 10432),SID442884102,2.01,1.86,2.04,active
RBM14 (GeneID 10432),SID442892903,-0.209,0.307,0.238,inactive
PTPMT1 (GeneID 114971),SID442893027,-0.0363,-0.0212,0.342,inactive
PNPLA3 (GeneID 80339),SID442899699,-0.692,-0.6,-0.678,inactive
RB1CC1 (GeneID 9821),SID442893601,-0.232,0.0768,0.248,inactive
NALF2 (GeneID 27112),SID442900738,-1.71,-0.275,-0.413,inactive
LOC401182 (retired record) (GeneID 401182),SID442888654,0.505,0.272,1.27,inactive
ADAMTS8 (GeneID 11095),SID442899291,-0.625,-0.642,-0.539,inactive
TTN (GeneID 7273),SID442892214,0.614,0.0121,-0.0381,inactive
LOC392443 (retired record) (GeneID 392443),SID442893287,-1.04,0.604,0.643,inactive
ACSF2 (GeneID 80221),SID442893728,0.31,-0.0292,-0.229,inactive
LOC389166 (retired record) (GeneID 389166),SID442900457,-0.558,-0.727,-0.998,inactive
LARS2 (GeneID 23395),SID442894899,0.474,-0.611,-0.197,inactive
